Source: PubChem BioAssay AID540275 (National Center for Advancing Translational Sciences (NCATS), 2011)
The campaign covered roughly 320,000 compounds. About 620 (0.19%) were called active. Inconclusive results, whose numbers are uncertain, are shown with a selection of clear calls. No stated cut-off is given here; in the data, active means activation above about 80%; inconclusive means between about 30% and that limit; inactive means weaker than that.

Protein sequences, listed by entry. Tags and fused reporters are not part of them.
UniProt Q8NER1, whole entry, looked up: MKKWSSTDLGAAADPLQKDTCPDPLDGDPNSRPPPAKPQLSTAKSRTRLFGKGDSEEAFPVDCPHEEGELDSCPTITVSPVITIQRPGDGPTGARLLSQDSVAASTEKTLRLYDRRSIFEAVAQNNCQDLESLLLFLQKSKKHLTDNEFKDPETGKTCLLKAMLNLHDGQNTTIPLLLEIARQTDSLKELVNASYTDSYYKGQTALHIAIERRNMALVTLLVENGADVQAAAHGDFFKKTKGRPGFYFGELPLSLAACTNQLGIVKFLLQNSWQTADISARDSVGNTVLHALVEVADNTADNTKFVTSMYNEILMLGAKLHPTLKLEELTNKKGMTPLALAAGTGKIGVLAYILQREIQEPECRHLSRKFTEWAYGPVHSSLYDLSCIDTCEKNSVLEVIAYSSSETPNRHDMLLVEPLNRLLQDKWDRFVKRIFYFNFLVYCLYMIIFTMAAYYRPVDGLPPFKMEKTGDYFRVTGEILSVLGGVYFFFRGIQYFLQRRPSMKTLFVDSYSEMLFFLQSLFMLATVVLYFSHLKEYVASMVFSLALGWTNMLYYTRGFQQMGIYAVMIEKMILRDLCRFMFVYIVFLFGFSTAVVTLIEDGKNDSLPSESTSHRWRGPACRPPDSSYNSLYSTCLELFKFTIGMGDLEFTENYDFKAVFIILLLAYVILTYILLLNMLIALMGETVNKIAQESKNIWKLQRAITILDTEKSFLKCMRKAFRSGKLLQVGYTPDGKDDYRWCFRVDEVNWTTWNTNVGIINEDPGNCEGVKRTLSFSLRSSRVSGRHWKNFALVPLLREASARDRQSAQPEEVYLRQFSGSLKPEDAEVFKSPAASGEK

The compounds below were run against Transient receptor potential cation channel subfamily V member 1 (Homo sapiens) (UniProt Q8NER1) (assay: HTS Assay for Compounds that Act as Agonists of the Vanilloid Receptor 1). Details: TRPV1-expressing cells, Fluo-8 calcium influx, agonist mode; at 8.33 µM, hits give high values.
In short: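 Cells expressing TRPV1 were dye-loaded with Fluo-8 and read kinetically: 10 s baseline, 3 min after compound (agonist portion), then 2 min after EC20 capsaicin (allosteric enhancer portion). Calcium-bound dye fluorescence at 480/520 nm.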
Wherever activation is given: 0% is about no effect.

Row | Structure (SMILES) | activation
1 | CCCCCC1CC1C(=O)N/N=C/c1ccc(N(C)C)cc1 (stereo unspecified) | inactive: 9.84%
2 | CC(C)C[C@H](NC(=O)c1nc[nH]c1C(=O)NCC(=O)OC(C)(C)C)C(=O)OCc1ccccc1 | inactive: -1.69%
3 | CC1=C(C(=O)OCc2ccccc2)C(c2cccnc2)c2c(n(C)c(=O)n(C)c2=O)N1 (stereo unspecified) | inactive: -3.8%
4 | CC(=O)NCCc1nc2ccccc2n1CCOc1ccccc1C | inconclusive: 54.1%
5 | COc1ccc(NC(=O)CCC(=O)c2ccc(C(C)C)cc2)cc1 | inconclusive: 38.4%
6 | Cc1ccc(NC2CCCN(C(=O)c3ccoc3C)C2)cc1C (stereo unspecified) | inconclusive: 34%
7 | Cc1cc(C)cc(NC(=S)N2CCN(c3ccc(F)cc3)CC2)c1 | inactive: 8.46%
8 | CCCNC(=S)N1CCN(C(c2ccccc2)c2ccccc2)CC1 | inconclusive: 55.1%
9 | Cc1ccc(-c2noc(CSc3nnnn3C3CCCCC3)n2)cc1 | inconclusive: 35%
10 | O=C(CCCSc1nc2ccccc2[nH]1)Nc1ccccc1 | inconclusive: 33.3%
11 | C1=Nc2c(NCc3ccccc3)ncnc2Oc2ccccc21 | inconclusive: 59.9%
12 | S=c1[nH]nc(-c2ccccn2)n1/N=C/c1ccc(Cl)cc1 | inactive: 0.412%
13 | C/C(=N\NC(=O)c1ccncc1)c1cccc(NC(=O)c2ccc(Cl)s2)c1 | inconclusive: 43.2%
14 | CCC(C)c1ccccc1NC(=O)C(C)NCCN(C)C (stereo unspecified) | inactive: -2.3%
15 | CCOC(=O)[C@H]1[C@H]2COc3ccccc3[C@@H]2N2C(=O)c3cc(F)ccc3NC(=O)[C@@]12C | inconclusive: 55.4%
16 | CCCn1c(=O)c(-c2nc3ccccc3[nH]2)c(O)c2ccccc21 | inactive: 2.48%
17 | Fc1ccccc1CNC(=S)NC1CCCCC1 | inconclusive: 46.1%
18 | COCCn1c(C)cc(/C=C(\C#N)C(=O)OCC(=O)Nc2ccc(S(N)(=O)=O)cc2)c1C | inactive: 2.69%
19 | COc1ccccc1N1CCN(c2nc3ccccc3nc2C(C#N)C(=O)OC(C)C)CC1 (stereo unspecified) | inconclusive: 62%
20 | Cc1cc(C(=O)Nc2nc3ccc(Cl)cc3s2)nn1C | inconclusive: 46.3%
21 | O=C(c1ccc(Cl)cc1)N1CCCC(c2ccccc2)=N1 | inconclusive: 47.9%
22 | N#C/C(=C(/O)COc1ccc(Br)cc1)c1nnc2n1CCCCC2 | inactive: -4.04%
23 | COC(=O)Cc1ccc(NC(=O)c2ccc(C)c(C)c2)cc1 | inconclusive: 50.5%

Four entries from above, as a markdown table.

| Row | Structure (SMILES) | activation |
| --- | --- | --- |
| 14 | CCC(C)c1ccccc1NC(=O)C(C)NCCN(C)C (stereo unspecified) | inactive: -2.3% |
| 15 | CCOC(=O)[C@H]1[C@H]2COc3ccccc3[C@@H]2N2C(=O)c3cc(F)ccc3NC(=O)[C@@]12C | inconclusive: 55.4% |
| 16 | CCCn1c(=O)c(-c2nc3ccccc3[nH]2)c(O)c2ccccc21 | inactive: 2.48% |
| 17 | Fc1ccccc1CNC(=S)NC1CCCCC1 | inconclusive: 46.1% |

(cont.)

Row | Structure (SMILES) | activation
24 | O=C(NCCC1=CCCCC1)C1CCC(=O)N(Cc2cccc(C(F)(F)F)c2)C1 (stereo unspecified) | inconclusive: 34.9%
25 | CC(C)c1ccc(Nc2nc(Cl)nc(NCCO)n2)cc1 | inconclusive: 66.4%
26 | Cc1ccc(OCC(=O)Nc2ccc(N3CCN(C(=O)c4ccco4)CC3)cc2)cc1C | inactive: 10.6%
27 | O=C(Cc1ccc(Br)cc1)NCCc1ccc(F)cc1 | inconclusive: 61.5%
28 | Oc1ccc2ccccc2c1C=NC1CCCCC1 | inconclusive: 33.5%
29 | CCc1nc(N2CCN(C(=O)c3ccco3)CC2)c(C#N)c2c1COC(C)(C)C2 | inconclusive: 48.2%
30 | Cc1cccc(N2CCN(C(=O)/C=C/c3cccs3)CC2C)c1 (stereo unspecified) | inconclusive: 50.8%
31 | COc1cccc(Oc2coc3cc(OC(=O)N4CCOCC4)ccc3c2=O)c1 | inconclusive: 55.2%
32 | CCOP(=O)(OCC)C(Nc1cccc(C(F)(F)F)c1)c1ccc(Br)cc1 (stereo unspecified) | inconclusive: 39.2%
33 | CC(=O)Nc1ccc(NC(=O)c2nc(-c3ccccc3)oc2C)cc1 | inactive: 30%
34 | Cc1c(NC(=S)NCc2ccc(F)cc2)cccc1[N+](=O)[O-] | inconclusive: 42%
35 | NC(=O)c1ccc(Cn2c(C(=O)c3ccc(Cl)cc3)c3ccccc3[n+]2[O-])cc1 | inconclusive: 66.4%
36 | O=C(NCc1ccc(F)cc1)Nc1cccc([N+](=O)[O-])c1 | inconclusive: 62.2%
37 | COc1ccc(Nc2nnc(-c3ccncc3)s2)cc1Cl | inconclusive: 36.8%
38 | Oc1ccc(CN2CCN(c3ccccc3)CC2)c2cccnc12 | inactive: -4.34%
39 | CNC(=O)NC(=O)C(C)OC(=O)CCCSc1nc2ccccc2s1 (stereo unspecified) | inconclusive: 50%
40 | CCOc1cc(CN2CCN(c3cccc(C(F)(F)F)c3)CC2)ccc1OC | inactive: -11.8%
41 | CC(C)(C)C1CCc2c(C(=O)N/N=C/c3cccs3)csc2C1 (stereo unspecified) | inconclusive: 65%
42 | CN(CC1CCCO1)S(=O)(=O)c1ccc(C(=O)Nc2ccc(F)cc2)cc1 (stereo unspecified) | inconclusive: 54.5%
43 | CC1CCN(c2ccc(C(=O)NCc3ccco3)cc2[N+](=O)[O-])CC1 | inconclusive: 48.3%
44 | CC(=O)c1c(C)[nH]c(C(=O)Nc2ccc(C)cn2)c1C | inconclusive: 31.8%
45 | O=C(CCc1nc2ccccc2s1)N1CCN(c2ccccc2)CC1 | inconclusive: 48.9%
46 | O=c1oc2ccccc2cc1NCc1ccccc1O | inconclusive: 36.9%

Row | Structure (SMILES) | activation
47 | COc1ccc(CCNC(=O)CCCOc2cccc(C)c2C)cc1OC | active: 83.4%
48 | N#Cc1ccc2c(c1)C[C@]1(CCCCN3C(=O)c4ccccc4C3=O)Oc3cc(-c4ccccc4)oc(=O)c3[C@H]2O1 | inactive
49 | O=C(COC(=O)CNC(=O)c1ccc([N+](=O)[O-])o1)Nc1ncc(C(F)(F)F)cc1Cl | inactive: -2.09%
50 | COc1ccc(C2c3c(ncn(CCN4CCOCC4)c3=N)Oc3ccc4ccccc4c32)cc1 (stereo unspecified) | inconclusive: 32.7%
51 | O=C(Nc1ccc(F)cc1)Oc1ccc[nH]c1=O | inconclusive: 32%
52 | CCn1cc(/C=C(\NC(=O)c2ccccc2F)C(=O)N2CCOCC2)c2ccccc21 | inactive: 0.461%
53 | C=C(C)Cn1c(SCC(=O)N/N=C/c2cccc(O)c2)nc2ccccc2c1=O | inactive: 7.9%
54 | COC(=O)N/N=C(\C)c1cccs1 | inactive: 2.96%
55 | O=c1[nH]c2cc3c(cc2cc1C(c1nnnn1Cc1ccccc1)N1CCCCCC1)OCCO3 (stereo unspecified) | inconclusive: 52.5%
56 | COc1ccc(CC(=O)N2CCC(Nc3nc4ccccc4n3Cc3ccc(F)cc3)CC2)cc1 | inactive: 1.77%
57 | O=C(Nc1ccon1)c1ccc(N2CCCCC2)c([N+](=O)[O-])c1 | inconclusive: 70.4%
58 | Cc1cc2c(c(=O)n1Cc1ccccn1)C(c1ccc3c(c1)OCO3)C(C#N)=C(N)O2 (stereo unspecified) | inconclusive: 49.2%
59 | Cc1ccccc1OCC(O)CN1CCCCC1 (stereo unspecified) | inactive: 15.6%
60 | CCCOc1ccc(-c2c(C(=O)N/N=C/c3ccsc3)nnn2-c2nonc2N)cc1 | inconclusive: 50.1%
61 | O=C(CCN1CCCCO1)N1CCCC(Nc2ccc(F)c(F)c2)C1 (stereo unspecified) | inconclusive: 71.2%
62 | NC(=S)Cc1ccc(Cl)cc1Cl | inactive: 1.37%
63 | CC(=O)c1ccc(OCC(=O)c2cc(C)n(-c3ccc4c(c3)OCO4)c2C)cc1 | inconclusive: 46.4%
64 | O=C(COc1ccccc1)NCC(c1ccco1)N1CCN(c2ccc(F)cc2)CC1 (stereo unspecified) | inactive: -4.12%
65 | CCC/C(=N\NC(=O)c1csc(C)c1C)c1cccs1 | inconclusive: 53.5%
66 | CC(C)(C)c1ccc(-c2n[nH]c(=S)n2CC2CCCO2)cc1 (stereo unspecified) | inconclusive: 48.9%
67 | Cc1cccc(C(=O)O/N=C2/CC3CCC2(C)C3(C)C)c1 (stereo unspecified) | inconclusive: 53.7%
68 | O=P(Cc1cc(Br)cc(Br)c1OCCO)(c1ccccc1)c1ccccc1 | inconclusive: 48%
69 | COc1ccc(CN(C(=O)c2ccco2)c2ccc(C)c(C)c2)cc1 | inconclusive: 57%

Row | Structure (SMILES) | activation
70 | COc1ccc(Cc2nc3ccc(C(=O)N(C)CCCN4CCOCC4)cc3o2)cc1 | inactive: 2.4%
71 | Cc1ccc(-c2nc3cc(N)ccc3o2)c(C)c1 | inactive: 7.04%
72 | Cc1ccc(C(=O)NCc2ccc(N3CCN(C(=O)OC(C)(C)C)CC3)cc2)cc1 | inactive: 5.91%
73 | COc1ccc(Nc2ncnc3ccccc23)cc1 | inconclusive: 49.5%
74 | COc1ccc(CCNC(=O)c2ccc(-c3ccc([N+](=O)[O-])cc3Cl)o2)cc1OC | inactive: 19.1%
75 | O=C(CCNC(=O)c1ccc(Cl)cc1)Nc1ccccc1N1CCCCC1 | inactive: 21.5%
76 | CCCOC(=O)c1ccc(NC(=O)c2ccc(Br)o2)cc1 | inconclusive: 47.5%
77 | Cc1ccc(C(=O)c2c3ccc(C(F)(F)F)cc3[n+]([O-])n2CCC(N)=O)cc1 | inactive: 7.56%
78 | C=CCn1c(SCC(=O)Nc2ccc(F)cc2)nc2ccccc2c1=O | inconclusive: 44.4%
79 | Cc1cc(C(=O)Nc2cc(C(C)(C)C)on2)c(C)o1 | inconclusive: 54%
80 | Fc1ccc(-c2ccc(CNCc3ccccn3)o2)cc1Cl | inconclusive: 32.1%
81 | CCN(CC(=O)Nc1ccccc1OC)C(=O)COc1ccc2ccccc2c1 | inconclusive: 31.6%
82 | Fc1ccc(CNC(=S)NC2CCCC2)cc1 | inconclusive: 55.9%
83 | O=C(/C(=C/c1ccccc1Cl)c1ccccc1)N1CCOCC1 | inconclusive: 38.5%
84 | Cc1ccc(NC(=O)C(=O)NCCN2CCN(Cc3ccc([N+](=O)[O-])cc3)CC2)cc1 | inactive: 4.41%
85 | CCOC(=O)N1CCN(C(=O)COC(=O)Cc2ccc(OC)cc2)CC1 | inactive: 0.739%
86 | Cc1ccc(C(=O)N2CCN=C2SCc2ccc([N+](=O)[O-])cc2)cc1 | inconclusive: 30.4%
87 | Nc1c(C(=O)NCc2ccccc2)sc2nc(N3CCOCC3)c3c(c12)CCCC3 | inactive: 0.777%
88 | COc1ccc(C2CC(=O)c3c([nH]c(C(=O)OC(C)C)c3C)C2)cc1OC (stereo unspecified) | inconclusive: 33.5%
89 | CC1CCCCC1NS(=O)(=O)c1ccc(S(=O)(=O)N2CCN(CCC#N)CC2)cc1 (stereo unspecified) | inactive: 4.28%
90 | CCOC(=O)c1sc(N/N=C/c2cccc(C)c2)nc1C | inactive: -0.142%
91 | COc1ccc(NC(=O)C2CC(c3ccccc3O)=NO2)cc1OC (stereo unspecified) | inconclusive: 47%

Copied from the list:
activation with C=C(C)Cn1c(SCC(=O)N/N=C/c2cccc(O)c2)nc2ccccc2c1=O reads inactive: 7.9%
activation with COCCn1c(C)cc(/C=C(\C#N)C(=O)OCC(=O)Nc2ccc(S(N)(=O)=O)cc2)c1C reads inactive: 2.69%
activation with COc1ccccc1N1CCN(c2nc3ccccc3nc2C(C#N)C(=O)OC(C)C)CC1 (stereo unspecified) reads inconclusive: 62%
